Some of the results follow.

The chains behind the UniProt entries cited, without tags or fusion partners. Where a name states a change or a piece, a line headed by the entry shows the natural chain unless it says otherwise.
UniProt Q9H3H3: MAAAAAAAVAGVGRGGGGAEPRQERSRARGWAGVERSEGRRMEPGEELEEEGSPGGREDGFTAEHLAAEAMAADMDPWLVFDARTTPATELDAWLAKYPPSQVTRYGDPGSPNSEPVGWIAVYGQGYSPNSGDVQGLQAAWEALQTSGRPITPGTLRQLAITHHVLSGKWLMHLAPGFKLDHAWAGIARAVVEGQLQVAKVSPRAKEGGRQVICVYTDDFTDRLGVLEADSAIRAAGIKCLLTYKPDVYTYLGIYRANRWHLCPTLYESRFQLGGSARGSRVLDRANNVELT
UniProt Q8WUQ7: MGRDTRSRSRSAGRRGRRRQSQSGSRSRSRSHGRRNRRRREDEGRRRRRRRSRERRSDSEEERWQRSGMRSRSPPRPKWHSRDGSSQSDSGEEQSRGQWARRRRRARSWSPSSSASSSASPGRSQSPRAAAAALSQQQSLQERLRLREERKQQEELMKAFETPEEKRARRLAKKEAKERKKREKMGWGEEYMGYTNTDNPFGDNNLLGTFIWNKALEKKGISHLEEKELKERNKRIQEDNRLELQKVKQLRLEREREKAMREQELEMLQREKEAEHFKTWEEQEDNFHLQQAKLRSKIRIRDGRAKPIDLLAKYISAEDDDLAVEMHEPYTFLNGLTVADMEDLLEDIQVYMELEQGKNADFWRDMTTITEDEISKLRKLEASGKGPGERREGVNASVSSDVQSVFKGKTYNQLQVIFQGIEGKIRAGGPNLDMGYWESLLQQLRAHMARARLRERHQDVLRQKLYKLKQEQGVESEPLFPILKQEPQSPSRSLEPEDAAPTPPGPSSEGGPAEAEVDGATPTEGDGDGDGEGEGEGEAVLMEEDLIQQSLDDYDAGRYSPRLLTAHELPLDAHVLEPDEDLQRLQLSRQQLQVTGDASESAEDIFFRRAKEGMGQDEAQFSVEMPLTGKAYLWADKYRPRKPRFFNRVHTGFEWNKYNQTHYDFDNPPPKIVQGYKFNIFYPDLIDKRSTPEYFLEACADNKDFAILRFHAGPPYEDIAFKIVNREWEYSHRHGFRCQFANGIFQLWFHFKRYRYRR
UniProt P27824: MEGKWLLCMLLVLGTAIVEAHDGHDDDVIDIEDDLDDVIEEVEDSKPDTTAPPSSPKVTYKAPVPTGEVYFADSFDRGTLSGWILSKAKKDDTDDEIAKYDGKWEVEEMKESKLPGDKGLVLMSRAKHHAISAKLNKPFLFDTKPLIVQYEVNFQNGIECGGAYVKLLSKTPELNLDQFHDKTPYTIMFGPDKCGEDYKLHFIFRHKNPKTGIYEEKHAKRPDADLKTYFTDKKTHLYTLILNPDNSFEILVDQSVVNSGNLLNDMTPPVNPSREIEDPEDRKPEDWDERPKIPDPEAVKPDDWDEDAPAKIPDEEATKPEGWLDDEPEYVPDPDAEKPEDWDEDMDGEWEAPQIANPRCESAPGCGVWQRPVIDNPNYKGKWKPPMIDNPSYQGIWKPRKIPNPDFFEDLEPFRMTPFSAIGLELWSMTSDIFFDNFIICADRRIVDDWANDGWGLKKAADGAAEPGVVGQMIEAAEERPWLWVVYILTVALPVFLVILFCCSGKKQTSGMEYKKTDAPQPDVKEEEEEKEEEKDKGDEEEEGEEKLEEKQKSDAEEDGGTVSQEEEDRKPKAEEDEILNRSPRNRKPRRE
UniProt Q8N999, whole entry, looked up: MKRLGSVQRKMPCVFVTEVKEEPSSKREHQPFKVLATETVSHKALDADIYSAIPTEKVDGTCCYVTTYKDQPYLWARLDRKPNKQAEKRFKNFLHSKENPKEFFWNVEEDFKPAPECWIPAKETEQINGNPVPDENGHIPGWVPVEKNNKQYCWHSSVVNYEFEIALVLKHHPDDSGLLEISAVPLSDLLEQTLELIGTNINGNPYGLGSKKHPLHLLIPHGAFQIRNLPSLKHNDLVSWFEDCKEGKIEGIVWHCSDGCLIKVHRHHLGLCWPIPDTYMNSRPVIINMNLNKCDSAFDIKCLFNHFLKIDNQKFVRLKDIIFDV
UniProt Q9Y376: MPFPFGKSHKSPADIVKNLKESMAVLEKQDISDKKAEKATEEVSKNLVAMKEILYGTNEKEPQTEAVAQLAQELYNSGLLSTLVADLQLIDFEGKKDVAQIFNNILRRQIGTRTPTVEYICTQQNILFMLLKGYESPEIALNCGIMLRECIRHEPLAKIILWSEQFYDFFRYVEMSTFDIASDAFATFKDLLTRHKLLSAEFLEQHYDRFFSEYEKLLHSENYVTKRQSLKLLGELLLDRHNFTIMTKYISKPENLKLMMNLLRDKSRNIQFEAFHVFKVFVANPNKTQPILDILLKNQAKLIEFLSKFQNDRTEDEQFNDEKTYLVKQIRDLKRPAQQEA
UniProt O60566, whole entry, looked up: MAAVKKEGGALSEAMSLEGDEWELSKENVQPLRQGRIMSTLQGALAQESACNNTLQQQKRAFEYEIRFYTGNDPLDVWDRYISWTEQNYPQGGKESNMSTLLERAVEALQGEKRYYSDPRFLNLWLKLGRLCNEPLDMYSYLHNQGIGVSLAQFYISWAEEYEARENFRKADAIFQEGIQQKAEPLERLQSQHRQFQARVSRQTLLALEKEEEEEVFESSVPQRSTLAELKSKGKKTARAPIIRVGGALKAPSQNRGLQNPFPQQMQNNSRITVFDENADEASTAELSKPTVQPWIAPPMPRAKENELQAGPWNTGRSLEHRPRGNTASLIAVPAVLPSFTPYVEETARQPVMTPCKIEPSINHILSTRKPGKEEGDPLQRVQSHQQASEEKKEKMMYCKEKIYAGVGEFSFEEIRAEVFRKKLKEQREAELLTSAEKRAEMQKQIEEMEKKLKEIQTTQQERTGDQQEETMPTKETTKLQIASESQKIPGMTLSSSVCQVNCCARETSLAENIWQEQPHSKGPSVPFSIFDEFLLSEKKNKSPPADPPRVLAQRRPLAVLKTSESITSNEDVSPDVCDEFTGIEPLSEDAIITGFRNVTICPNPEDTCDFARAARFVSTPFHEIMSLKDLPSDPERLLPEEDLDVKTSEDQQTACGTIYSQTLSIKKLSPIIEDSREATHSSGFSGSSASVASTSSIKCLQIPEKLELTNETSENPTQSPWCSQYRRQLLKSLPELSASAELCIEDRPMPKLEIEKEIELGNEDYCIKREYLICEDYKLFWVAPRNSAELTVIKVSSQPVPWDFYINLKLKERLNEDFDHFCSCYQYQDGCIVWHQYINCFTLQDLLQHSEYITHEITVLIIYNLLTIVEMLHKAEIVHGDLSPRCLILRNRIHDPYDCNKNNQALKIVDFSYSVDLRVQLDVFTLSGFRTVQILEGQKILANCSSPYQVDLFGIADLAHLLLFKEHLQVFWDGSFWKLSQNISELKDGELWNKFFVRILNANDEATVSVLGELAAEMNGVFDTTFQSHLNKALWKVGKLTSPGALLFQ
UniProt Q7KYR7: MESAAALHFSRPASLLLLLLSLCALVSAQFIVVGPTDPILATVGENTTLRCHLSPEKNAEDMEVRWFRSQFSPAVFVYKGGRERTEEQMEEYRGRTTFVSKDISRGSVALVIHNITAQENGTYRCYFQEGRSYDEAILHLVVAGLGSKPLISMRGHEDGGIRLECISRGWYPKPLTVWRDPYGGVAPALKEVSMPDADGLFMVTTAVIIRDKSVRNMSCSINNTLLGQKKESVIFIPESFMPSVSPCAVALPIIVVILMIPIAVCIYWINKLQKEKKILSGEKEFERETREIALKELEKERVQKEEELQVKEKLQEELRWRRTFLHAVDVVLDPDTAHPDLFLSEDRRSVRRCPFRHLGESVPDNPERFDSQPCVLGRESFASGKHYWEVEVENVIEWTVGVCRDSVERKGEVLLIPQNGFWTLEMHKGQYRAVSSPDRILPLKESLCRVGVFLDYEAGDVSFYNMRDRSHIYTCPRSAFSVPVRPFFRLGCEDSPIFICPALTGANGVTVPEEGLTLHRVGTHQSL
UniProt Q9NZ63: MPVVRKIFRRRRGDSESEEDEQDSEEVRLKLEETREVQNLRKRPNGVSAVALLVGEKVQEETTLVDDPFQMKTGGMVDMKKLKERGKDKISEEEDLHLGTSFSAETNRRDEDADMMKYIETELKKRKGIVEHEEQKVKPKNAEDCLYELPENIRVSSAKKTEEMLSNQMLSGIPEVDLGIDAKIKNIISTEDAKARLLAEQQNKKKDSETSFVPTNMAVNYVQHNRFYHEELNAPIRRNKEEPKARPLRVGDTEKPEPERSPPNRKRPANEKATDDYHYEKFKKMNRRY
UniProt Q8N6N3: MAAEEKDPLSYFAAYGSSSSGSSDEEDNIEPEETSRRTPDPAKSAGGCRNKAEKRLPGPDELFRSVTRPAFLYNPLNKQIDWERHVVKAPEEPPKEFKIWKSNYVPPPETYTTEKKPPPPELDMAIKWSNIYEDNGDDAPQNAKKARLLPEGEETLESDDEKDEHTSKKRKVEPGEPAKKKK
UniProt Q13901: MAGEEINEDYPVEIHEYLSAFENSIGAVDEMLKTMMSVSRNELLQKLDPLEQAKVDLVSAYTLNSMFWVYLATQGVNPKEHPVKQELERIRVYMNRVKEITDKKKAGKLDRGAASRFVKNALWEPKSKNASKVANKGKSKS
UniProt P47756, whole entry, looked up: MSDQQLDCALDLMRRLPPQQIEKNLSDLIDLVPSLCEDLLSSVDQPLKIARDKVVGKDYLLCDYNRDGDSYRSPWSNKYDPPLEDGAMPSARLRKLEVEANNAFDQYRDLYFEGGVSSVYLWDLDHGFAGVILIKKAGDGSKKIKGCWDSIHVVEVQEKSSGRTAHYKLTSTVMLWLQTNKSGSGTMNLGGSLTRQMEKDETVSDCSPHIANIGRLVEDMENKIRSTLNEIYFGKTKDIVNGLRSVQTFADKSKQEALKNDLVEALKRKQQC
UniProt P10643, whole entry, looked up: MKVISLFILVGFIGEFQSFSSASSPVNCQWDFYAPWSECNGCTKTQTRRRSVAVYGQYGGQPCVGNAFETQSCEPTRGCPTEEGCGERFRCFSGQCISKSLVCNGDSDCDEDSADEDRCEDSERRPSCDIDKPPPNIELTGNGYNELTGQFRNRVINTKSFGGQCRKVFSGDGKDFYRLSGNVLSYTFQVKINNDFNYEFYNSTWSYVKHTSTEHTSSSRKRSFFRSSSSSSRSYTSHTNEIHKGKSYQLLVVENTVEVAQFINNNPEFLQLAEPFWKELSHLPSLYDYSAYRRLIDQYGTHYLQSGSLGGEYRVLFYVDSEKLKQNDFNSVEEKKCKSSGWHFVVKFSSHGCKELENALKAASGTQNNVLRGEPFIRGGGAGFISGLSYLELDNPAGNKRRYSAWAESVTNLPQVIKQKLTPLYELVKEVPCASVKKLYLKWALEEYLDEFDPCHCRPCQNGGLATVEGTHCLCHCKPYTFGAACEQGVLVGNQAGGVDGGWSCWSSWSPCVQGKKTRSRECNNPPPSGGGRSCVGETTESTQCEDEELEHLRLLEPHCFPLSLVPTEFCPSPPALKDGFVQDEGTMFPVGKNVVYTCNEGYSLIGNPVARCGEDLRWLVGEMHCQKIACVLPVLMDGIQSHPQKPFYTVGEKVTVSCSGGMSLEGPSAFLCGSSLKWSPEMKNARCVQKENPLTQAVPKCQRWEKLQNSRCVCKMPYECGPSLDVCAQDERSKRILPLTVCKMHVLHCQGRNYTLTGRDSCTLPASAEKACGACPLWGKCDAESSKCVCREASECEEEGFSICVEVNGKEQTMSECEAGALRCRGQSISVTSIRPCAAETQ
UniProt Q96B23: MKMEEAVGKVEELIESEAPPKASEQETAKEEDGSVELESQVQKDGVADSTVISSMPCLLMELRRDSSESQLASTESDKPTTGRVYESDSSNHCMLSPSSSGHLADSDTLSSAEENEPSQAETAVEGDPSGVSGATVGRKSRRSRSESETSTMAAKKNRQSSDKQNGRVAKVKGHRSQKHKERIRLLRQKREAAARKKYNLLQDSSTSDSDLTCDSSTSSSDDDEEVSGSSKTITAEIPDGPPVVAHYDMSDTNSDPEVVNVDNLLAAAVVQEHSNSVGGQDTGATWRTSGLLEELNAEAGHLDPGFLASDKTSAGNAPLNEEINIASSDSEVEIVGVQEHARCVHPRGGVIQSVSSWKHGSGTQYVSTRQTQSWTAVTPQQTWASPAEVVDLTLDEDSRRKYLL
UniProt Q9Y2G2: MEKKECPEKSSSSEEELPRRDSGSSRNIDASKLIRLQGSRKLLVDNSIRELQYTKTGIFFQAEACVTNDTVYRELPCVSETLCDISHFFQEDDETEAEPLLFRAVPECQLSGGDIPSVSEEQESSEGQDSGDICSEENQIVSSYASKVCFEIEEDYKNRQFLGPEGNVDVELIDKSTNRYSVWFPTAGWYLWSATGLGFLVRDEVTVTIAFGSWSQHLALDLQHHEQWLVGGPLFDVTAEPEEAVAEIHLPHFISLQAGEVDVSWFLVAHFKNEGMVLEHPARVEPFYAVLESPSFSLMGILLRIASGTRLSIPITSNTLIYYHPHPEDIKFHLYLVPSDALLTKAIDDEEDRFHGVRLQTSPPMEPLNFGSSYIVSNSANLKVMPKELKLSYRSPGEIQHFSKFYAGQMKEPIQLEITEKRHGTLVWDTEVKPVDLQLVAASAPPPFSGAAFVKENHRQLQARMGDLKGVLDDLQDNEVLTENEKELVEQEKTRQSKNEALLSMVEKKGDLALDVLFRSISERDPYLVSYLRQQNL

Compound in the first assay: Cc1cccc(CC(=O)N2CCc3c2ccc(-c2cn(C)c4ncnc(N)c24)c3F)n1
Kind of assay: log2 fold change, soluble protein after heating vs DMSO (PISA); higher = thermal stabilisation; K562 cells, 10 uM, 30 min; active = over 0.2 and 3.5 SD of the protein, either way, in both replicates (recomputed). The method, boiled down:
(§1)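 For each measurement, 10 μM compound was applied for 30 min to K562 cells at 2×10^6 cells/mL. Aliquots were heated for 3 min across 48°C-58°C, pooled, and extracted in PBS with 0.5% NP-40 at 4°C; the supernatant after 21,000xg for 90 min was soluble protein. This was quantified by TMTpro 16plex LC-MS/MS with channel sums equalised, and thermal stability was reported relative to control samples from duplicates, on a log2 fold-change scale.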
For the target C8orf76 (UniProt Q96K31), the log2 fold change was inactive: 0.
Same read-out and setting: then C6orf89 isoform 2 (UniProt Q6UWU4), with inactive: -0.086; and CALCOCO1 (UniProt Q9P1Z2), with inactive: -0.017; and CALU isoform 4 (UniProt O43852), with inactive: -0.002.
Same read-out and setting: then C1GALT1C1 (UniProt Q96EU7), with inactive: 0.019; and C9orf40 (UniProt Q8IXQ3), with inactive: 0.213; and CAPRIN1 (UniProt Q14444), with inactive: -0.073.
The same measure, in the same setting: then C11orf68 (UniProt Q9H3H3), with inactive: 0.017; and CACTIN isoform 2 (UniProt Q8WUQ7), with inactive: -0.026; and C18orf32 (UniProt Q8TCD1), with inactive: -0.112.
C1GALT1 (UniProt Q9NS00): the log2 fold change was inactive: -0.081.
Consider CARD19 isoform 2 (UniProt Q96LW7), for which the log2 fold change is inactive: 0.037.
Same read-out and setting: then C17orf80 (UniProt Q9BSJ5), with inactive: -0.03; and CANX isoform 2 (UniProt P27824), with inactive: -0.029.
Same read-out and setting: then C4BPA (UniProt P04003), with inactive: 0.035.
Regarding C12orf29 (UniProt Q8N999), the log2 fold change was inactive: 0.004.
Regarding CAB39 (UniProt Q9Y376), the log2 fold change was inactive: -0.002.
As to BTRC (UniProt Q9Y297), the log2 fold change is inactive: 0.062.
Still for that read-out and setting: then BUB1B isoform 3 (UniProt O60566), with inactive: 0.107; and BTN2A1 (UniProt Q7KYR7), with inactive: -0.199; and C12orf73 (UniProt Q69YU5), with inactive: -0.041.
For the target C9orf78 (UniProt Q9NZ63), the log2 fold change is inactive: -0.053.
The same measure, in the same setting: then C1orf52 (UniProt Q8N6N3), with inactive: -0.022.
On the same count and under the same terms, then CAD (UniProt P27708), with inactive: 0.06; and CA13 (UniProt Q8N1Q1), with inactive: -0.034; and CALB1 (UniProt P05937), with inactive: -0.018.
Same read-out and setting: then C1D (UniProt Q13901), with inactive: -0.013; and C16orf58 (UniProt Q96GQ5), with inactive: 0.052.
Turning to C9orf72 (UniProt Q96LT7), the log2 fold change is inactive: -0.018.
On the same count and under the same terms, then C19orf53 (UniProt Q9UNZ5), with inactive: 0.034.
Still for that read-out and setting: then CAPZB isoform 2 (UniProt P47756), with inactive: 0.001.
On the same count and under the same terms, then C7 (UniProt P10643), with inactive: -0.131.
As for C18orf25 isoform 2 (UniProt Q96B23), the log2 fold change was inactive: 0.195.
Take CARD8 isoform 5 (UniProt Q9Y2G2): the log2 fold change was inactive: 0.067.

Compound in another assay: Cc1cn(-c2cc(NC(=O)c3ccc(C)c(Nc4nccc(-c5cccnc5)n4)c3)cc(C(F)(F)F)c2)cn1 [nilotinib]
The description is as above. The method, boiled down:
as §1
For the target C8orf76 (UniProt Q96K31), the log2 fold change is inactive: 0.016.
Still for that read-out and setting: then C6orf89 isoform 2 (UniProt Q6UWU4), with inactive: 0.01.
On to CALCOCO1 (UniProt Q9P1Z2), for which the log2 fold change was inactive: 0.005.
As for CALU isoform 4 (UniProt O43852), the log2 fold change was inactive: 0.
Turning to C1GALT1C1 (UniProt Q96EU7), the log2 fold change was inactive: 0.056.
Same read-out and setting: then C9orf40 (UniProt Q8IXQ3), with inactive: -0.01; and CAPRIN1 (UniProt Q14444), with inactive: 0.032.
The same measure, in the same setting: then C11orf68 (UniProt Q9H3H3), with inactive: -0.046.
For the target CACTIN isoform 2 (UniProt Q8WUQ7), the log2 fold change is inactive: -0.001.
Turning to C18orf32 (UniProt Q8TCD1), the log2 fold change was inactive: 0.037.
C1GALT1 (UniProt Q9NS00): the log2 fold change is inactive: -0.157.
For the target C17orf80 (UniProt Q9BSJ5), the log2 fold change is inactive: -0.018.
As for CANX isoform 2 (UniProt P27824), the log2 fold change is inactive: 0.041.
With C4BPA (UniProt P04003), the log2 fold change is inactive: 0.008.
Still for that read-out and setting: then C12orf29 (UniProt Q8N999), with inactive: -0.051; and CAB39 (UniProt Q9Y376), with inactive: 0.013.
The same measure, in the same setting: then BTRC (UniProt Q9Y297), with inactive: 0.
For the target BUB1B isoform 3 (UniProt O60566), the log2 fold change was inactive: -0.089.
Same read-out and setting: then BTN2A1 (UniProt Q7KYR7), with inactive: 0.016; and C12orf73 (UniProt Q69YU5), with inactive: 0.013.
On the same count and under the same terms, then C9orf78 (UniProt Q9NZ63), with inactive: 0.005; and C1orf52 (UniProt Q8N6N3), with inactive: 0.001; and CAD (UniProt P27708), with inactive: -0.095.
Same read-out and setting: then CA13 (UniProt Q8N1Q1), with inactive: 0.037.
Consider CALB1 (UniProt P05937), for which the log2 fold change was inactive: -0.018.
In the case of C1D (UniProt Q13901), the log2 fold change was inactive: 0.059.
As to C16orf58 (UniProt Q96GQ5), the log2 fold change was inactive: -0.036.
The same measure, in the same setting: then C9orf72 (UniProt Q96LT7), with inactive: 0.031; and C19orf53 (UniProt Q9UNZ5), with inactive: 0.029; and CAPZB isoform 2 (UniProt P47756), with inactive: 0.059.
Same read-out and setting: then C7 (UniProt P10643), with inactive: -0.056.
The same measure, in the same setting: then C18orf25 isoform 2 (UniProt Q96B23), with inactive: 0.044; and CARD8 isoform 5 (UniProt Q9Y2G2), with inactive: 0.14.
